Binding data for 1 substance are collected here from publication PMC12604781 (PLOS Pathogens, 2025).

Sequences of proteins named here, by UniProt entry; tags and fusion partners are left off.
UniProt Q8N884: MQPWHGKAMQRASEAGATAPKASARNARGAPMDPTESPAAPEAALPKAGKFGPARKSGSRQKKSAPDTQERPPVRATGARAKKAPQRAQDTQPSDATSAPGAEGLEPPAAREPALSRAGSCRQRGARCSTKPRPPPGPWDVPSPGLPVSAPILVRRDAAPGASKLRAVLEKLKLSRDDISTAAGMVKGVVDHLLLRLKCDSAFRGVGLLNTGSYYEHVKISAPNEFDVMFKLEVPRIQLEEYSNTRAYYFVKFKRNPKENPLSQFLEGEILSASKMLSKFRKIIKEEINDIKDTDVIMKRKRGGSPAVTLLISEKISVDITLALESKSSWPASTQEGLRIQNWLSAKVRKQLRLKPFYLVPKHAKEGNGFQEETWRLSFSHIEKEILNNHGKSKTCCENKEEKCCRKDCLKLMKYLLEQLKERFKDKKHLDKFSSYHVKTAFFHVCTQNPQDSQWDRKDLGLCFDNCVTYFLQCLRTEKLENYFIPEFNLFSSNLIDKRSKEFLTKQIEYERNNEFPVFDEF

Results are given in words; binding and its absence hold for the method and conditions named. In cells and extracts the contact can be indirect. Some binding calls cover weakened binding; strength is not graded here. Tags and fused reporters may be left off the sequences shown.

The assay addresses T1, HSV-1 US1 (C-terminal Flag, pCAGGS) (herpes simplex virus type 1 (HSV-1)) (UniProt P04485).
T1 sequence: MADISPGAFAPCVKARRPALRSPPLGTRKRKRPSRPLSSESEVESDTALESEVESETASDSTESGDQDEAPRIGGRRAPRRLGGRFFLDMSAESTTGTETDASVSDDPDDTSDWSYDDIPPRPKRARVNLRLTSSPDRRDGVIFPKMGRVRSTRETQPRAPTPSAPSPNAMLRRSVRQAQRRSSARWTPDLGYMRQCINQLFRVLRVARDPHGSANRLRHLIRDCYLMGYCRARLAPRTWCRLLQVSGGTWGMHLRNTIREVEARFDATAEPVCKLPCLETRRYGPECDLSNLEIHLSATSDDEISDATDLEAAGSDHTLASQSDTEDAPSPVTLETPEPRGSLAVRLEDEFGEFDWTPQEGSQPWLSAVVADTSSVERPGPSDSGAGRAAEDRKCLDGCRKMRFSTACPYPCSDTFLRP
In words: co-IP.

Consider “hcGAS (C-terminal HA, pcDNA3.1) (from UniProt Q8N884 1-522) (enzyme)”, for which the binding entry was “binds”.
